pIC50: −log10 of the molar value. Some of these results come from one statement about several compounds together. For some assays here: At least one structure is not confirmed: it was looked up by name or label, or the drawing left a doubt.
What was measured:
Assay type in all cases: cell-based
[1] = molecular target: T1, dopamine transporter (hDAT) (Homo sapiens, UniProt Q01959); experiment: Inhibition of 3H-dopamine uptake by HEK-293 cells transfected with hDAT; conditions: selectivity hSERT over hDAT
T1 construct: expressed in transfected cells; host or cells: HEK-293

Protein sequences, listed by entry. Tags and fused reporters are not part of them.
UniProt Q01959, whole entry: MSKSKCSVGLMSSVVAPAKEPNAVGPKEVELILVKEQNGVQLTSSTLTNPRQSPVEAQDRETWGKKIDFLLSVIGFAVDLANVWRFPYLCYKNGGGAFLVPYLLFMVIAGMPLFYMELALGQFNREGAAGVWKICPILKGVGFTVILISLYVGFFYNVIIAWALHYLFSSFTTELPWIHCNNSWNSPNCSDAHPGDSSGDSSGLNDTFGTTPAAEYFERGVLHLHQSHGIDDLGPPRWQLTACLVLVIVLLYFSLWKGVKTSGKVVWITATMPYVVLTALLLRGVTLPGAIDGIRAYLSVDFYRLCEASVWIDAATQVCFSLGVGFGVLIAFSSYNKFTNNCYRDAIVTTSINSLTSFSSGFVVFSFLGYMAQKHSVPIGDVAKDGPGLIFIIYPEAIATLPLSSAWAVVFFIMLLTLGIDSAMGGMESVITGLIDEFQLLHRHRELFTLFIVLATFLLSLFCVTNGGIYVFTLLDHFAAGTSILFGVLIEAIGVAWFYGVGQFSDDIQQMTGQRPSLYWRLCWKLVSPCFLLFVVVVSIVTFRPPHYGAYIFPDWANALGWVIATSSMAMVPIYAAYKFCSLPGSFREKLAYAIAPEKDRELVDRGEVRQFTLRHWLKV
UniProt P23975, whole entry: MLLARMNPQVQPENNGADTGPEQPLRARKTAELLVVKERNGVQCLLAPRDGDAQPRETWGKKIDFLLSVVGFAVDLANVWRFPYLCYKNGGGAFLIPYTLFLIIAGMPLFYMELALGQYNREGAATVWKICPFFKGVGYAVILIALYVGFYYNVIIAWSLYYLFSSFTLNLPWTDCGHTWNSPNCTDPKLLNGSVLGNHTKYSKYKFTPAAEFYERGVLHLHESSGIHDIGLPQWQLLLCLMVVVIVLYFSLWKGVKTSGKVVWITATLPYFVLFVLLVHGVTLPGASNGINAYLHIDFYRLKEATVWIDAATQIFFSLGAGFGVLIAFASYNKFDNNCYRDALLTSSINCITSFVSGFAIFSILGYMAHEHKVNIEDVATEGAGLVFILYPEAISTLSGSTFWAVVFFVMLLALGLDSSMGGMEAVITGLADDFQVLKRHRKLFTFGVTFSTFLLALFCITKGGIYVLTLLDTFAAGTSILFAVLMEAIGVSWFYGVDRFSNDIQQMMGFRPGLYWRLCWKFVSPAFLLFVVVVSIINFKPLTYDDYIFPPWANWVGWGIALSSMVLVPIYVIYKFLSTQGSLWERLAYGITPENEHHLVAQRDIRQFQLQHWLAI
UniProt P31645, whole entry: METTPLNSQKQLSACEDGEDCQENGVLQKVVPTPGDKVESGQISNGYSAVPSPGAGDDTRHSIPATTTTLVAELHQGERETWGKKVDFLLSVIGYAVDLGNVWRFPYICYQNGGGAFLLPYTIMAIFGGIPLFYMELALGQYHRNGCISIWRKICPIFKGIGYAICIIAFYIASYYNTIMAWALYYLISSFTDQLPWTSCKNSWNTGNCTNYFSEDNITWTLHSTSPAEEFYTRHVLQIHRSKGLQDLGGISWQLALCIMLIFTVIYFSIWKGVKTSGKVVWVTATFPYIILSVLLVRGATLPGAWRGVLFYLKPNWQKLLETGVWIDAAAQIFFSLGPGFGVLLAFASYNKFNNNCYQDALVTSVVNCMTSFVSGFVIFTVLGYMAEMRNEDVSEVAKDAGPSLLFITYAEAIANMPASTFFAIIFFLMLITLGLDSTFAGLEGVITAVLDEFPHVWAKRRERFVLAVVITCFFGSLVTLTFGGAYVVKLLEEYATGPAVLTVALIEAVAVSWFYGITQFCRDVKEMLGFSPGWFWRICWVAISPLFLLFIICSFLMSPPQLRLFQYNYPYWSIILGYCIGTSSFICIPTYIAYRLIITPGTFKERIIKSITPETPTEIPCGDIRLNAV

[2] = molecular target: T2, noradrenaline transporter (hNET) (Homo sapiens, UniProt P23975); experiment: Inhibition of 3H-noradrenaline uptake by HEK-293 cells transfected with hNET; conditions: selectivity hSERT over hNET
T2 construct: expressed in transfected cells; host or cells: HEK-293

[3] = molecular target: T3, human serotonin transporter (hSERT) (Homo sapiens, UniProt P31645); experiment: Inhibition of 3H-serotonin uptake by HEK-293 cells transfected with hSERT; conditions: for pIC50: HEK-293 cells expressing hSERT, 3H-5HT 50 nM, 5 min incubation, read-out: serotonin re-uptake inhibition (SRI) IC50; for fold as potent in the inhibition of serotonin re-uptake than in the inhibition of dopamine re-uptake or noradrenaline re-uptake: selectivity hSERT over hDAT or hNET (at least one)
T3 construct: expressed in transfected cells; host or cells: HEK-293

Compound	fold as potent in the inhibition of serotonin re-uptake than in the inhibition of dopamine re-uptake [1]	fold as potent in the inhibition of serotonin re-uptake than in the inhibition of noradrenaline re-uptake [2]	pIC50 [3]	fold as potent in the inhibition of serotonin re-uptake than in the inhibition of dopamine re-uptake or noradrenaline re-uptake [3]
CSc1ccc(Oc2ncccc2CN(C)C)cc1.Cl.Cl [Example 91]	more than 100 fold	more than 100 fold	–	–
CN(C)Cc1cnccc1Oc1ccc2c(c1)SCCO2.Cl.Cl [Example 78]	more than 100 fold	more than 100 fold	–	–
CSc1ccc(Oc2ccncc2CN2CCC2)cc1 [Example 101, 3-(1-Azetidinylmethyl)-4-[4-(methylsulfanyl)phenoxy]pyridine]	more than 100 fold	more than 100 fold	≥ 7.60	more than 100 fold
CNCc1cnccc1Oc1ccc2c(c1)CCS2 [Example 21]	more than 100 fold	more than 100 fold	≥ 7.60	more than 100 fold
CSc1ccc(Oc2ccncc2CN(C)C)cc1Cl.Cl.Cl [Example 59]	more than 100 fold	more than 100 fold	–	–
CSc1ccc(Oc2cnccc2CN(C)C)cc1.Cl.Cl [Example 64]	more than 100 fold	more than 100 fold	–	–
CN(C)Cc1cnccc1Oc1ccc(C(F)(F)F)cc1 [Example 95]	more than 100 fold	more than 100 fold	≥ 7.60	more than 100 fold
CNCc1cnccc1Oc1ccc2c(c1)CSC2 [Example 27]	more than 100 fold	more than 100 fold	≥ 7.60	more than 100 fold
CCc1cc(Oc2cnccc2CN(C)C)ccc1SC.Cl.Cl [Example 84]	more than 100 fold	more than 100 fold	–	–
CNCc1cnccc1Oc1ccc(SC)c(F)c1 [Example 20]	more than 100 fold	more than 100 fold	≥ 7.60	more than 100 fold
CNCc1cnccc1Oc1ccc(SC)c(C)c1 [Example 19]	more than 100 fold	more than 100 fold	≥ 7.60	more than 100 fold
CN(C)Cc1cnccc1Oc1ccc2c(c1)CCS2.Cl.Cl [Example 65]	more than 100 fold	more than 100 fold	–	–
CN(C)Cc1cnccc1Oc1ccc(OC(F)(F)F)cc1 [Example 96]	more than 100 fold	more than 100 fold	≥ 7.60	more than 100 fold
CNCc1ccncc1Oc1ccc(Cl)c(SC)c1 [Example 47]	more than 100 fold	more than 100 fold	≥ 7.60	more than 100 fold
CNCc1ccncc1Oc1ccc(SC)cc1 [Example 35]	more than 100 fold	more than 100 fold	≥ 7.60	more than 100 fold
CSc1cc(Oc2cnccc2CN(C)C)ccc1Cl.Cl.Cl [Example 88]	more than 100 fold	more than 100 fold	–	–
CNCc1cnccc1Oc1ccc(SC)cc1 [Example 18, N-Methyl-N-({4-[4-(methylsulfanyl)phenoxy]-3-pyridinyl}methyl)amine]	more than 100 fold	more than 100 fold	≥ 7.60	more than 100 fold

Compound	fold as potent in the inhibition of serotonin re-uptake than in the inhibition of dopamine re-uptake [1]	fold as potent in the inhibition of serotonin re-uptake than in the inhibition of noradrenaline re-uptake [2]	pIC50 [3]	fold as potent in the inhibition of serotonin re-uptake than in the inhibition of dopamine re-uptake or noradrenaline re-uptake [3]
CNCc1ccncc1Oc1ccc(SC)c(OC)c1 [Example 34, {3-[3-Methoxy-4-(methylsulfanyl)phenoxy]-4-pyridinyl}-N-methylmethanamine]	more than 100 fold	more than 100 fold	≥ 7.60	more than 100 fold
CCc1cc(Oc2ccncc2CNC)ccc1SC [Example 32]	more than 100 fold	more than 100 fold	≥ 7.60	more than 100 fold
CSc1ccc(Oc2ncccc2CN(C)C)cc1C.Cl.Cl [Example 92]	more than 100 fold	more than 100 fold	–	–
CNCc1ccncc1Oc1ccc2c(c1)CSC2 [Example 44]	more than 100 fold	more than 100 fold	≥ 7.60	more than 100 fold
CSc1ccc(Oc2cnccc2CN(C)C)cc1Cl.Cl.Cl [Example 87]	more than 100 fold	more than 100 fold	–	–
CNCc1ccncc1Oc1ccc(SC)c(Cl)c1 [Example 46]	more than 100 fold	more than 100 fold	≥ 7.60	more than 100 fold
CSc1ccc(Oc2ccncc2CN(C)C)cc1 [Example 97]	more than 100 fold	more than 100 fold	–	–
CSc1cc(Oc2cc(C)ncc2CN(C)C)ccc1Cl.Cl.Cl [Example 90]	more than 100 fold	more than 100 fold	–	–
CSc1cc(Oc2ccncc2CN(C)C)ccc1Cl.Cl.Cl [Example 82]	more than 100 fold	more than 100 fold	–	–
CNCc1cnc(C)cc1Oc1ccc(SC)c(C)c1 [Example 51]	more than 100 fold	more than 100 fold	≥ 7.60	more than 100 fold
CCc1cc(Oc2ccncc2CN(C)C)ccc1SC.Cl.Cl [Example 80]	more than 100 fold	more than 100 fold	–	–
CSc1ccc(Oc2ccncc2CN(C)C)cc1C [Example 98]	more than 100 fold	more than 100 fold	≥ 7.60	more than 100 fold
CSc1ccc(Oc2cnccc2CN(C)C)cc1F.Cl.Cl [Example 66]	more than 100 fold	more than 100 fold	–	–
CSc1ccc(Oc2cnccc2CN(C)C)cc1C.Cl.Cl [Example 67]	more than 100 fold	more than 100 fold	–	–
CNCc1cnccc1Oc1ccc(SC)c(Cl)c1 [Example 22]	more than 100 fold	more than 100 fold	–	–
CSc1ccc(Oc2ccncc2CN(C)C)cc1F.Cl.Cl [Example 61]	more than 100 fold	more than 100 fold	–	–
